PubChem BioAssay AID743121, NCATS, 2013
The deposit covers about 26,000 reagents; shown is an unselected part. 167 of all reagents (0.63%) count as active. 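Calls are per gene from RSA p-values that are not deposited; an individual active-marked siRNA can sensitise only weakly.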 Reagents against one gene are numbered here.

- Screen: 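Knock-downs that sensitise breast cancer cells to camptothecin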 (primary screen)
- System: MDA-MB-231 cells, a human breast cancer line
- Reagent: single siRNA against human genes, 20 nM siRNA (0.8 pmol per well)
- Timing: 120 h (drug added 48 h after transfection, read 72 h later)
- Treatment: camptothecin 20 nM (about EC30) for 72 h; vehicle 0.1% DMSO in parallel plates
- Detection: 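CellTiter-Glo ATP signal, scaled to control siRNA as percent viability; sensitisation given as log2 of untreated divided by camptothecin-treated viability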
- Scale: log2 vehicle/camptothecin viability: higher = stronger sensitisation to camptothecin; viability with camptothecin and viability without drug: higher = more viable cells
- Rule for the call: 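Active genes have an RSA gene-level p-value below 0.001, computed from the ratios of their separate siRNAs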

no.	gene	reagent no.	log2 vehicle/camptothecin viability	viability with camptothecin (% of control)	viability without drug (% of control)	Outcome
1	PIH1D1	1	1.6	16.6	50.3	inactive
2	PIH1D1	2	-0.045	55.5	53.8	inactive
3	PIH1D1	3	0.0523	47	48.7	inactive
4	PIH1D1	4	-0.137	18.3	16.6	inactive
5	MLN	1	0.255	74.7	89.1	inactive
6	MLN	2	-0.226	69.4	59.3	inactive
7	MLN	3	0.261	75.8	90.8	inactive
8	MLN	4	-0.396	71.2	54.1	inactive
9	TUBB2B	1	-0.0662	101	96.7	inactive
10	TUBB2B	2	-0.429	129	95.4	inactive
11	TUBB2B	3	-0.338	133	105	inactive
12	TUBB2B	4	-0.187	92.1	80.9	inactive
13	IGFBP2	1	-0.077	96	91	inactive
14	IGFBP2	2	-0.3	115	93.8	inactive
15	IGFBP2	3	-0.316	69.7	56	inactive
16	ERCC8	1	-0.269	110	91.4	inactive
17	ERCC8	2	-0.106	78.3	72.7	inactive
18	ERCC8	3	-0.0855	101	95.1	inactive
19	ERCC8	4	-0.00246	65.1	65	inactive
20	SIGLEC10	1	0.0228	74.8	76	inactive
21	SIGLEC10	2	-0.469	81	58.5	inactive
22	SIGLEC10	3	-0.0683	124	118	inactive
23	PPARD	1	-0.475	84.7	61	inactive
24	PPARD	2	-0.186	61.7	54.3	inactive
25	PPARD	3	-0.486	68.9	49.2	inactive
26	PDE1C	1	0.197	79.3	90.9	inactive
27	PDE1C	2	-0.536	62.5	43.1	inactive
28	PDE1C	3	-0.185	51.3	45.2	inactive
29	PDE1C	4	-0.145	93	84.1	inactive
30	CA8	1	0.0549	95.4	99.1	inactive
31	CA8	2	-0.149	119	108	inactive
32	CA8	3	-0.118	105	96.8	inactive
33	CA8	4	-0.451	90.9	66.5	inactive
34	BICRA	1	-0.104	85.1	79.2	inactive
35	BICRA	2	-0.477	53.8	38.7	inactive
36	BICRA	3	-0.006	65.4	65.2	inactive
37	BICRA	4	0.543	60.8	88.6	inactive
38	CASP8AP2	1	-0.37	63.3	49	inactive
39	CASP8AP2	2	-0.838	53.8	30.1	inactive
40	CASP8AP2	3	-0.0238	40.3	39.6	inactive

The list goes on (5 carried over from the part before).
no.	gene	reagent no.	log2 vehicle/camptothecin viability	viability with camptothecin (% of control)	viability without drug (% of control)	Outcome
36	BICRA	3	-0.006	65.4	65.2	inactive
37	BICRA	4	0.543	60.8	88.6	inactive
38	CASP8AP2	1	-0.37	63.3	49	inactive
39	CASP8AP2	2	-0.838	53.8	30.1	inactive
40	CASP8AP2	3	-0.0238	40.3	39.6	inactive
41	WNT3A	1	-0.383	74.8	57.4	inactive
42	WNT3A	2	-0.222	88.4	75.8	inactive
43	WNT3A	3	-0.555	106	72.3	inactive
44	COL4A4	1	-0.241	78.8	66.7	inactive
45	COL4A4	2	-0.364	44.9	34.9	inactive
46	COL4A4	3	0.455	57	78.2	inactive
47	COL4A4	4	-0.303	79.5	64.5	inactive
48	PSMA3	1	0.109	14.2	15.3	inactive
49	PSMA3	2	-0.369	22.2	17.2	inactive
50	PSMA3	3	-0.173	7.82	6.94	inactive
51	PSMA3	4	0.361	12.8	16.4	inactive
52	TNC	1	-0.309	68.1	55	inactive
53	TNC	2	0.123	87.4	95.2	inactive
54	TNC	3	-0.236	101	85.6	inactive
55	TNC	4	-0.503	69.4	49	inactive
56	KIF23	1	0.239	58.2	68.7	inactive
57	KIF23	2	-0.323	13.8	11	inactive
58	KIF23	3	-0.245	57.3	48.4	inactive
59	SLC25A4	1	-0.16	108	97	inactive
60	SLC25A4	2	-0.521	74.7	52.1	inactive
61	SLC25A4	3	0.799	11.4	19.8	inactive
62	MAS1L	1	-0.563	85.2	57.7	inactive
63	MAS1L	2	-0.283	54.8	45	inactive
64	MAS1L	3	-0.155	115	104	inactive
65	MAS1L	4	-0.0304	96.4	94.4	inactive
66	DVL3	1	-0.289	79.6	65.1	inactive
67	DVL3	2	0.392	2.62	3.44	inactive
68	DVL3	3	-0.0855	76	71.6	inactive
69	DVL3	4	0.0685	67.9	71.2	inactive
